Experimental data: PubChem BioAssay AID686943 (Drosophila RNAi Screening Center, 2013)
The deposit covers about 23,000 reagents; below is an unselected part of those that have a named target and a result. 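Extra replicates exist only for a retested subset of genes; insulin dose and duration not given; both raised and lowered dpERK matter.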 Not all columns of the deposit are shown. Not given: the amount of reagent, the time to read-out.

Aim: 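Knockdowns that increase or decrease active ERK after insulin receptor stimulation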 (primary screen)
Cell system: Drosophila S2R+ haemocyte-like cells expressing YFP-tagged ERK (Rolled)
Reagent: long dsRNA against Drosophila genes
Conditions: insulin stimulation versus unstimulated cells; dose and duration not given
Measurement: 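Per-plate z-scores of phospho-ERK immunostaining normalised to YFP-tagged ERK, measured with and without insulin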
Reading the numbers: replicate 1, z-score of dpERK with insulin and replicate 2, z-score of dpERK with insulin: higher = more active ERK per ERK-YFP after insulin; replicate 1, z-score of dpERK under basal conditions: higher = more basal active ERK per ERK-YFP

no.	gene knocked down	amplicon	replicate 1, z-score of dpERK with insulin	replicate 2, z-score of dpERK with insulin	replicate 1, z-score of dpERK under basal conditions
1	CG13947	DRSC00365	0.63	-0.65	0.95
2	Jhbp1 (Juvenile hormone binding protein 1)	DRSC12167	0.49	-0.63	0.29
3	Wdr37 (WD repeat domain 37)	DRSC14500	0.97	-0.24	0.18
4	sbr (small bristles)	DRSC19770	-0.94	-0.93	2.86
5	sbr (small bristles)	DRSC20368	-0.13	-1.2	1.15
6	Pgant5 (Polypeptide N-Acetylgalactosaminyltransferase 5)	DRSC03149	0.5	1.27	0.19
7	CG43102	DRSC13261	-0.29	0.31	-0.44
8	CG43102	DRSC14797	0.55	0	0.59
9	CG43102	DRSC16239	0.56	2.27	0.31
10	LysS (Lysozyme S)	DRSC08677	0.03	0.66	0.29
11	CG16798	DRSC02517	0.67	0.88	1.48
12	Bap111 (Brahma associated protein 111kD)	DRSC18419	0.06	-0.19	-0.22
13	gom (gomdanji)	DRSC04690	0.6	0.04	0.87
14	Sbp2 (SECIS-binding protein 2)	DRSC10766	-1.04	0.27	-0.53
15	CG3457	DRSC18509	0.36	-0.05	-0.3
16	TotE (Turandot E)	DRSC21355	-0.43	0.04	-0.16
17	lama (lamina ancestor)	DRSC11361	0.02	0.77	-0.27
18	CG33689	DRSC09424	-0.07	-0.45	-1.32
19	MFS15 (Major Facilitator Superfamily Transporter 15)	DRSC06523	0.48	-0.2	1.72
20	lncRNA:CR34024 (long non-coding RNA:CR34024)	DRSC13734	-0.1	-0.27	1.43
21	Tengl2 (Testis EndoG-Like 2)	DRSC21968	-0.3	1.29	-0.27
22	Naa15-16 (N(alpha)-acetyltransferase 15/16)	DRSC19440	3.07	2.15	1.01
23	Naa15-16 (N(alpha)-acetyltransferase 15/16)	DRSC22846	-0.28	-0.28	-0.65
24	Mitf	DRSC17212	0.32	0.23	0.74
25	Mitf	DRSC21056	-0.96	0.19	0.35

Looked up above:
Under “replicate 2, z-score of dpERK with insulin”, sbr (small bristles) [DRSC19770] is entered as -0.93
For “replicate 1, z-score of dpERK with insulin”, Wdr37 (WD repeat domain 37) [DRSC14500] reads 0.97
Under “replicate 1, z-score of dpERK with insulin”, Naa15-16 (N(alpha)-acetyltransferase 15/16) [DRSC22846] shows -0.28
Entry for Pgant5 (Polypeptide N-Acetylgalactosaminyltransferase 5) [DRSC03149] under “replicate 1, z-score of dpERK under basal conditions”: 0.19
Entry for TotE (Turandot E) [DRSC21355] under “replicate 2, z-score of dpERK with insulin”: 0.04
Result for Jhbp1 (Juvenile hormone binding protein 1) [DRSC12167] in “replicate 2, z-score of dpERK with insulin”: -0.63

Next entries follow:
no.	gene knocked down	amplicon	replicate 1, z-score of dpERK with insulin	replicate 2, z-score of dpERK with insulin	replicate 1, z-score of dpERK under basal conditions
26	Sgs7 (Salivary gland secretion 7)	DRSC11281	-0.12	1.54	-0.97
27	blo (bloated)	DRSC05937	-0.16	0.04	-0.46
28	Him (Holes in muscle)	DRSC19638	-0.07	-0.6	-0.43
29	Acf (ATP-dependent chromatin assembly factor large subunit)	DRSC14101	0.13	0	0
30	CG6094	DRSC02927	0.09	0.04	0.3
31	CG6094	DRSC22705	-0.11	0.62	0.8
32	CG4259	DRSC00645	-0.02	0.57	0
33	APC7 (Anaphase Promoting Complex subunit 7)	DRSC17937	0.62	0.32	0.49
34	ItgaPS4 (Integrin alphaPS4 subunit)	DRSC06630	-0.05	-0.2	0.57
35	Cyp6d2 (Cytochrome P450 6d2)	DRSC04606	-0.37	-0.23	-0.34
36	Smyd4-2 (SET and MYND domain containing, class 4, member 2)	DRSC10126	-0.01	0.78	-0.11
37	CG17029	DRSC10240	0.15	-0.19	0.13
38	Ir40a (Ionotropic receptor 40a)	DRSC03732	0.2	0.37	-0.14
39	Ir40a (Ionotropic receptor 40a)	DRSC03733	-0.29	-0.38	-0.99
40	BomT2 (Bomanin Tailed 2)	DRSC06631	0.96	0.03	-0.26
41	NHP2	DRSC11229	0.02	0.29	0.2
42	CG32686	DRSC17645	0.6	0.69	0.91
43	Ogg1 (8-oxoguanine DNA glycosylase)	DRSC17738	0.47	0.35	-0.42
44	CG16775	DRSC10225	-0.67	0.24	-1.38
45	Bre1	DRSC09742	0.82	0.1	-2.2
46	CG17560	DRSC15242	0.35	0.24	-0.17
47	CG17746	DRSC08521	0.94	1.08	-0.17
48	mei-S332 (meiotic from via Salaria 332)	DRSC04704	0.2	-0.67	1.69
49	Act57B (Actin 57B)	DRSC04042	-1.51	-2.48	-1.56
50	Nlg4 (Neuroligin 4)	DRSC15108	0.81	0.71	1.2
51	Nlg4 (Neuroligin 4)	DRSC15109	0.27	-0.32	1.06
52	Nlg4 (Neuroligin 4)	DRSC15700	0.38	0.86	-0.73
53	Nlg4 (Neuroligin 4)	DRSC15701	-2.64	-3.45	-2.44
54	Nlg4 (Neuroligin 4)	DRSC22243	-1.58	-2.5	1.74
55	Rsbp15 (Radial spoke binding protein 15)	DRSC14176	-0.82	-0.85	-0.53
56	CG6885	DRSC10740	-0.11	0.53	2.47
57	hth (homothorax)	DRSC16967	0.39	0.07	0.4
58	Cyp12e1 (Cytochrome P450 12e1)	DRSC16622	0.53	0.76	-0.58
59	Ctr1C (Copper transporter 1C)	DRSC15089	0.44	0	0.03
60	CG12951	DRSC14579	-0.12	0.09	0.89
61	CG5568	DRSC10518	0.51	0.99	0.01
62	CG5568	DRSC22816	-0.06	0.59	0.27
63	CG10183	DRSC14203	0.7	-0.4	0.78
64	CG43101	DRSC05520	-0.89	-1.12	-0.64
65	T48 (Transcript 48)	DRSC16878	0.33	0.03	-0.18
66	CG5399	DRSC15791	-1.92	-1.44	3.33
67	CG14995	DRSC08452	-0.84	-3.7	-2.68
68	Or67a (Odorant receptor 67a)	DRSC11240	0.59	0.39	-0.18
69	CG4610	DRSC04477	0.33	-0.05	-0.3
70	CG4610	DRSC22397	0.19	0.17	-1.1
71	Rnf11 (Ring finger protein 11)	DRSC21574	0.05	-0.76	-0.71
72	CG13088	DRSC02192	0.24	0.08	0.28
73	CG7381	DRSC16238	0.15	0.54	0.04
